The list shows only some results of the screen, not a fair sample: it is rich in T/C values a quarter to a half above the control, in often repeated tests (any T/C) and in doses without a T/C. Other doses and runs of a compound stand elsewhere. T/C is the treated group as % of the vehicle group. Some doses have a count of surviving animals in place of a T/C: the source files T/C as zero there, which appears to mark a toxic dose or a test without result, not a measured value. Some survivor counts are full or nearly so, which does not show that the dose was tolerated: the source hardly ever lists a survival T/C far under the control, and the zero likely stands for such cases as well. Survivors were counted at the toxicity check, usually on the fifth day, unless a day is given; later deaths do not show. Schedule codes are those of the source, read here as Q, the interval in days (D) or hours (H), X, the number of doses. Some entries were tested several times; the values are given in rising order. Some structures stand for samples that the source files as different forms (salt, stereo form or complex); doses refer to the form tested. Where survival is the endpoint, this PubChem deposit counts one and a half times the control or more as active, and values a quarter to a half above the control carry no call in these data; other NCI protocols may use other cut-offs. Some T/C values are followed by the survivors on the day toxicity was checked, most often the fifth; without a count, all were alive then.

This assay has as its system BDF1 mice, B16 melanoma s.c., survival/tumor T/C. Description: NCI In Vivo Anticancer Drug Screen. Data for tumor model B16 Melanoma (subcutaneous) in B6D2F1 (BDF1) mice. The settings on record: T/C endpoint: median survival time, higher T/C = longer survival. On the procedure: The antitumor activity of compounds was measured in mice bearing transplantable tumors. Survival or tumor size were measured and the results are expressed as the measurement made in the treated group (T) divided by the measurement made in the vehicle treated control group (C). The tumor model used in this assay is B16 Melanoma (subcutaneous) in B6D2F1 (BDF1) mice

Where [1] appears, read: dose: 0.5 mg/kg/injection, schedule: Q01DX009 (ip), vehicle: saline.
Where [2] appears, read: dose: 0.25 mg/kg/injection, schedule: Q01DX009 (ip), vehicle: saline.

As for `O=C1c2ccccc2C(=O)c2c(NCCNCCO)ccc(NCCNCCO)c21`, the T/C by setting is: under setting [1], 127 % of control; (dose: 2.0 mg/kg/injection, schedule: Q02DX009 (ip), vehicle: saline) 138 % of control. Besides, the survivor count reads like this: (dose: 4.0 mg/kg/injection, schedule: Q02DX009 (ip), vehicle: Klucel (hydroxypropylcellulose) (HPC)) 10 of 10; (dose: 4.0 mg/kg/injection, schedule: Q02DX009 (ip), vehicle: water) 10 of 10; (dose: 8.0 mg/kg/injection, schedule: Q02DX009 (ip), vehicle: Klucel (hydroxypropylcellulose) (HPC)) 10 of 10; (dose: 8.0 mg/kg/injection, schedule: Q02DX009 (ip), vehicle: water) 10 of 10; (dose: 16.0 mg/kg/injection, schedule: Q02DX009 (ip), vehicle: Klucel (hydroxypropylcellulose) (HPC)) 10 of 10; (dose: 16.0 mg/kg/injection, schedule: Q02DX009 (ip), vehicle: saline) 10 of 10. In addition, the survivor count is, setting by setting: (dose: 20.0 mg/kg/injection, schedule: Q01DX009 (ip), vehicle: Klucel (hydroxypropylcellulose) (HPC)) 10 of 10; (dose: 30.0 mg/kg/injection, schedule: Q01DX009 (ip), vehicle: Klucel (hydroxypropylcellulose) (HPC)) 10 of 10; (dose: 32.0 mg/kg/injection, schedule: Q01DX009 (ip), vehicle: Klucel (hydroxypropylcellulose) (HPC)) 10 of 10; (dose: 32.0 mg/kg/injection, schedule: Q01DX009 (ip), vehicle: saline) 10 of 10; (dose: 32.0 mg/kg/injection, schedule: Q02DX009 (ip), vehicle: Klucel (hydroxypropylcellulose) (HPC)) 10 of 10; (dose: 32.0 mg/kg/injection, schedule: Q02DX009 (ip), vehicle: saline) 10 of 10. The survivor count is, setting by setting: (dose: 32.0 mg/kg/injection, schedule: Q02DX009 (ip), vehicle: water) 10 of 10; (dose: 64.0 mg/kg/injection, schedule: Q01DX009 (ip), vehicle: saline) 6 of 10; (dose: 64.0 mg/kg/injection, schedule: Q02DX009 (ip), vehicle: Klucel (hydroxypropylcellulose) (HPC)) 10 of 10; (dose: 64.0 mg/kg/injection, schedule: Q02DX009 (ip), vehicle: saline) 9 of 10; (dose: 64.0 mg/kg/injection, schedule: Q02DX009 (ip), vehicle: water) 10 of 10; (dose: 64.0 mg/kg/injection, schedule: Q04DX003 (ip), vehicle: Klucel (hydroxypropylcellulose) (HPC)) 9 of 9. In addition, the survivor count is, setting by setting: (dose: 110.0 mg/kg/injection, schedule: Q01DX001 (ip), vehicle: Klucel (hydroxypropylcellulose) (HPC)) 10 of 10; (dose: 128.0 mg/kg/injection, schedule: Q02DX009 (ip), vehicle: Klucel (hydroxypropylcellulose) (HPC)) 8 of 10 and 9 of 10; (dose: 128.0 mg/kg/injection, schedule: Q02DX009 (ip), vehicle: water) 4 of 10 and 7 of 10; (dose: 165.0 mg/kg/injection, schedule: Q01DX001 (ip), vehicle: Klucel (hydroxypropylcellulose) (HPC)) 9 of 10; (dose: 960.0 mg/kg/injection, schedule: Q04DX003 (ip), vehicle: Klucel (hydroxypropylcellulose) (HPC)) 10 of 10.
Take `C[n+]1c2ccccc2c(Nc2ccc(NS(=O)(=O)CCCCN=C(N)N)cc2)c2ccc(N)cc21`: the T/C (dose: 0.75 mg/kg/injection, schedule: Q01DX009 (sc), vehicle: saline) is 136 % of control. Also, for the setting “dose: 12.0 mg/kg/injection, schedule: Q01DX009 (sc), vehicle: saline”, the survivor count was 10 of 10.
For the compound `COC(=O)C[C@](O)(CCCC(C)(C)O)C(=O)O[C@@H]1C(OC)=C[C@]23CCCN2CCc2cc4c(cc2[C@H]13)OCO4`, the survivor count is 9 of 10 (dose: 0.12 mg/kg/injection, schedule: Q01DX009 (ip), vehicle: acid diluted with saline); 9 of 10 (dose: 2.3 mg/kg/injection, schedule: Q01DX009 (ip), vehicle: acid diluted with saline); 5 of 10 (dose: 4.0 mg/kg/injection, schedule: Q01DX009 (ip), vehicle: acid diluted with saline). Moreover, the T/C was 132 % of control (dose: 1.0 mg/kg/injection, schedule: Q01DX009 (ip), vehicle: acid diluted with saline) and 137 % of control (dose: 2.0 mg/kg/injection, schedule: Q01DX009 (ip), vehicle: acid diluted with saline).
On to `NCCc1ccc(O)c(O)c1`, for which the survivor count (dose: 75.0 mg/kg/injection, schedule: Q01DX009 (ip), vehicle: saline) is listed as 6 of 10; the survivor count (dose: 150.0 mg/kg/injection, schedule: Q01DX009 (ip), vehicle: saline) is given as 6 of 10; the survivor count (dose: 300.0 mg/kg/injection, schedule: Q01DX009 (ip), vehicle: saline) is on record as 8 of 10; the survivor count (dose: 600.0 mg/kg/injection, schedule: Q01DX009 (ip), vehicle: saline) is listed as 8 of 10.
In the case of `COc1cc2c[n+](C)c3c4cc5c(cc4ccc3c2cc1OC)OCO5`, where the note is “dose: 25.0 mg/kg/injection, schedule: Q01DX009 (ip), vehicle: Klucel (hydroxypropylcellulose) (HPC)”, the survivor count is given as 5 of 10.
Consider `COC(=O)C(N)CCCCNc1ccc2c(cc1=O)C(NC(C)=O)CCc1cc(OC)c(OC)c(OC)c1-2` (stereo unspecified), for which the T/C (dose: 35.0 mg/kg/injection, schedule: Q01DX009 (ip), vehicle: saline) is 129 % of control.
For `CC1(C)N=C(N)N=C(N)N1c1ccc(OCc2ccc(C(=O)Nc3cccc(S(=O)(=O)F)c3)cc2)c(Cl)c1`, the T/C (dose: 50.0 mg/kg/injection, schedule: Q04DX003 (ip), vehicle: saline) is 131 % of control. The survivor count is on record as 6 of 6 (dose: 100.0 mg/kg/injection, schedule: Q04DX003 (ip), vehicle: saline); 4 of 6 (dose: 200.0 mg/kg/injection, schedule: Q04DX003 (ip), vehicle: saline); 0 of 6 (dose: 400.0 mg/kg/injection, schedule: Q04DX003 (ip), vehicle: saline).
For the compound `CC(C)[C@](O)(C(=O)OCC1=CC[N+]2([O-])CC[C@@H](O)[C@@H]12)[C@H](C)O` (stereo partly specified), the T/C (dose: 400.0 mg/kg/injection, schedule: Q01DX009 (ip), vehicle: water) is 133 % of control.
`CC[C@]1(O)C[C@H]2CN(CCc3c([nH]c4ccccc34)[C@@](C(=O)OC)(c3cc4c(cc3OC)N(C=O)[C@H]3[C@@](O)(C(=O)OC)[C@H](OC(C)=O)[C@]5(CC)C=CCN6CC[C@]43[C@@H]65)C2)C1`: the T/C is, setting by setting: under setting [2], 100, 114, 122, 126, 134 % of control; under setting [1], 122 and 128 % of control. In addition, the survivor count was 6 of 6 under setting [2]; 6 of 10, 9 of 10, 6 of 6 under setting [1]; 3 of 6, 5 of 10, 5 of 6, 6 of 6 (dose: 1.0 mg/kg/injection, schedule: Q01DX009 (ip), vehicle: saline); 0 of 6, 4 of 6, 6 of 6 (dose: 2.0 mg/kg/injection, schedule: Q01DX009 (ip), vehicle: saline).
Take `CC(C)CCC[C@@H](C)[C@H]1CC[C@H]2[C@@H]3CC=C4C[C@@H](O)CC[C@]4(C)[C@H]3CC[C@]12C`: the survivor count was 10 of 10 and 12 of 12 (dose: 100.0 mg/kg/injection, schedule: Q01DX009 (ip), vehicle: other); 12 of 12 (dose: 200.0 mg/kg/injection, schedule: Q01DX009 (ip), vehicle: other); 12 of 12 (dose: 400.0 mg/kg/injection, schedule: Q01DX009 (ip), vehicle: other); 12 of 12 (dose: 800.0 mg/kg/injection, schedule: Q01DX009 (ip), vehicle: other); 7 of 12 (dose: 1600.0 mg/kg/injection, schedule: Q01DX009 (ip), vehicle: other).
Turning to `O=NN(CCF)C(=O)NC1CCC(=O)NC1=O` (stereo unspecified), the T/C (dose: 14.4 mg/kg/injection, schedule: Q01DX007 (ip), vehicle: Klucel (hydroxypropylcellulose) (HPC)) is 135 % of control [8 of 10 alive on day 55]. The survivor count (dose: 24.0 mg/kg/injection, schedule: Q01DX007 (ip), vehicle: Klucel (hydroxypropylcellulose) (HPC)) is given as 4 of 10 on day 55.

The record behind these values is PubChem BioAssay AID194 (DTP/NCI, 2004).
